Patent US12280032B2, “Methods and compositions for increasing the potency of antifungal agents” (Pacific Northwest Research Institute, priority 2014, dated 2025)
“Also recorded” adds a separate entry of the source. At least one compound was matched to its structure with a doubt left.

How the values were obtained:
the fungus = assay: Effects of antifungals in the presence of PE (FIG. 4); assay type: cell-based; details: PE used in conjunction with the antifungal
BY4741 lab strain = assay: YPD plate assay with nystatin disk, with or without PE; assay type: cell-based, Saccharomyces cerevisiae; details: YPD plus 10 mM PE, 50 μg nystatin disc
Procedure: In each panel, the top plate is YPD alone with a disc that contains DMSO, the bottom left plate is YPD alone with a disc that contains 50 μg Nystatin and the bottom right plate is YPD plus 10 mM PE with a disc that contains 50 μg Nystatin. The plates in FIG. 9, panel A are spread with the F45 strain. The plates in FIG. 9, panel B are spread with the BY4741 lab strain.
In each panel, the top plate is YPD alone with a disc that contains DMSO, the bottom left plate is YPD alone with a disc that contains 50 μg Nystatin and the bottom right plate is YPD plus 10 mM PE with a disc that contains 50 μg Nystatin. The plates in panel are spread with the F45 strain (FIG. 9, panel A), The plates in FIG. 9, panel Bare spread with the BY4741 lab strain.

[1] = test system: C. albicans 3147 (ATCC 10231), fluconazole resistant; assay: YPD plate assay with fluconazole disk, with or without PE; assay type: cell-based, Candida albicans; details: YPD plus 10 mM PE
S. cerevisiae (F45) = assay: YPD plate assay with antifungal filter disk, with or without PE; assay type: cell-based, Saccharomyces cerevisiae
[2] = test system: C. albicans fluconazole resistant strain R357; assay: as above; assay type: cell-based, Candida albicans
[3] = test system: Candida albicans (resistant=20186.025; 8357); assay: Checkerboard assay (FICI) of PE with triazole; assay type: cell-based; details: fluconazole resistant strain of C. albicans
[4] = test system: C. albicans 304 (ATCC 28121), fluconazole resistant; assay: YPD plate assay with fluconazole disk, with or without PE; assay type: cell-based, Candida albicans; details: YPD plus 10 mM PE
[5] = test system: C. albicans CATW 4/19 (ATCC 90819), fluconazole resistant; assay: as above; assay type: cell-based, Candida albicans; details: YPD plus 10 mM PE
[6] = test system: C. albicans (ATCC 18804), fluconazole sensitive strain; assay: YPD plate assay with antifungal filter disk, with or without PE; assay type: cell-based, Candida albicans
[7] = test system: Aspergillus fumigatus (ATCC 13073); assay: Checkerboard assay (FICI) of PE with triazole; assay type: cell-based
S. cerevisiae Strain F45 = assay: Zones of growth inhibition on YPD plates containing 10 mM Enamine compound with 50 μg fluconazole disk; assay type: cell-based, Saccharomyces cerevisiae
Procedure: Zones of Growth Inhibition were Measured for the S. cerevisiae Strain F45 on YPD Plates Containing 10 mM of the Enamine Compound with a 50 μg Fluconazole Disk Applied.
Zones of growth inhibition were also measured for strain F45 in which F45 strains were spread on YPD plates that contained 10 mM of an Enamine compound which was poured into the plate, with a 50 μg fluconazole disk. Enamine is an unsaturated compound derived by the condensation of an aldehyde or ketone with a secondary amine Some enmities have structures that are similar to PE, as such, they were tested to measure their efficacy in increasing sensitivity to an antifungal.

SMILES	Sensitivity of the fungus to the antifungal in the presence of PE (the fungus)	Effect of PE on nystatin sensitivity (BY4741 lab strain)	Effect of PE on fluconazole zone of inhibition [1]	Effect of PE on fluconazole sensitivity (zone of inhibition) (S. cerevisiae (F45))	Effect of PE on caspofungin sensitivity (S. cerevisiae (F45); YPD plus 10 mM PE, 200 ng-50 μg caspofungin disk, F45)	Effect of PE on sordarin sensitivity (S. cerevisiae (F45); YPD plus 10 mM PE, 500 ng-50 μg sordarin disk, F45)	Effect of PE on nystatin sensitivity (S. cerevisiae (F45); YPD plus 10 mM PE, 50 μg nystatin disc, F45)	Effect of PE on voriconazole sensitivity (S. cerevisiae (F45); YPD plus 10 mM PE, 10 or 25 μg voriconazole disk, F45)	Effect of PE on itraconazole sensitivity (S. cerevisiae (F45); YPD plus 10 mM PE, 12.5-100 μg itraconazole disk, F45)	Effect of PE on flucytosine zone of inhibition ([2]; YPD plus 10 mM PE in 1% DMSO, flucytosine disk, 8357 strain)	PE-sordarin effect ([2]; YPD plus 10 mM PE, 1, 10 or 50 μg sordarin disk, R357)	Effect of PE on fluconazole zone of inhibition ([2]; YPD plus 10 mM PE, fluconazole disk, R357)	PE-triazole effect [3]	Effect of PE on fluconazole zone of inhibition [4]	Effect of PE on fluconazole zone of inhibition [5]	Effect of PE on fluconazole zone of inhibition [6]	Effect of PE on flucytosine zone of inhibition [6]	PE-triazole effect [7]	Growth of fungal cells on the plate with fluconazole (S. cerevisiae Strain F45)
CCC(C)n1ncn(-c2ccc(N3CCN(c4ccc(OCC5COC(Cn6cncn6)(c6ccc(Cl)cc6Cl)O5)cc4)CC3)cc2)c1=O (stereo not shown) [Itraconazole]	increased the sensitivity																		
OCCc1ccccc1 [PE, phenyl ethanol]		no significant difference between the zone sizes	large zones of inhibition	significantly enhanced the potency of fluconazole; also recorded: sensitivity is increased	no significant difference between the zone sizes	sensitizes S. cerevisiae to Sordarin; also recorded: enhances the sensitivity of S. cerevisiae to Sordarin	no significant difference between the zone sizes; also recorded: does not increase the sensitivity to Nystatin	enhances the sensitivity of S. cerevisiae to Voriconazole	significant difference; also recorded: enhances the sensitivity of S. cerevisiae to Itraconazole	stronger effect on the more resistant strain	additive range; also recorded: appears additive	substantially larger than the zone of the sensitive strain; also recorded: large zones of inhibition	synergistic	large zones of inhibition	large zones of inhibition	larger in the presence of PE	zones are larger in the presence of PE	synergistic	high clearance of fungal cells
